Assay results: paper doi:10.64898/2025.12.01.691387
Results are given in words; binding and its absence hold for the method and conditions named. In cells and extracts the contact can be indirect. Some entries that bind do so weakly or less than the wild type. Sequences can lack the tags named with a protein.

Biological target: T1, FLAG-tagged HCMV UL82 (human cytomegalovirus (HCMV)) (UniProt P06726)
T1 sequence: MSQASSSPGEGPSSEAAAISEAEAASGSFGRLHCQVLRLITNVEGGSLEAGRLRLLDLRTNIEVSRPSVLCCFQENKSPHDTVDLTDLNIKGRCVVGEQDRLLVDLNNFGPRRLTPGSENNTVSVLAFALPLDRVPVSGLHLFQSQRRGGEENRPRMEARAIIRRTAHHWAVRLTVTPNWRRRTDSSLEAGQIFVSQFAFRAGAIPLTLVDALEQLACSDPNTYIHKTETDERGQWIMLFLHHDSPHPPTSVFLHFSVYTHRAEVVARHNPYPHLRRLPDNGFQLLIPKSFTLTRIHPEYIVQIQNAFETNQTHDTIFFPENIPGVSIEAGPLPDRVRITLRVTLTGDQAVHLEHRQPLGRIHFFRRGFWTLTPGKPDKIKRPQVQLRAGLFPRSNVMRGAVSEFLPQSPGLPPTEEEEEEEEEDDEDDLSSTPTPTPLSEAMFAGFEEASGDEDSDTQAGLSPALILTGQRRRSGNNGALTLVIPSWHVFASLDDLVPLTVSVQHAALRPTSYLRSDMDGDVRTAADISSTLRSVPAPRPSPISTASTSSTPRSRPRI
Assay: co-IP

B1: TLE5 (endogenous, HEK293T) (protein, UniProt Q08117 1-197)
chain: MMFPQSRHSGSSHLPQQLKFTTSDSCDRIKDEFQLLQAQYHSLKLECDKLASEKSEMQRHYVMYYEMSYGLNIEMHKQAEIVKRLNGICAQVLPYLSQEHQQQVLGAIERAKQVTAPELNSIIRQQLQAHQLSQLQALALPLTPLPVGLQPPSLPAVSAGTGLLSLSALGSQAHLSKEDKNGHDGDTHQEDDGEKSD
  binding: binds
